From the supplement of paper PMC12823440, “Inhibitors supercharge kinase turnover through native proteolytic circuits” (Nature, 2025)
Counter-ions that a name gives are not always drawn. The list shows a part of the results. Hit calls seldom repeat between salt and free forms of one compound.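 In K562 cells expressing nanoluciferase-fused kinases, luminescence was recorded at 4 h intervals between 2 and 18 h, normalized as percent of control with DMSO at 100% and a positive control at 0%. A significant (2 sigma) signal drop marks a time point as decreased. The authors' rule for a hit is not shown and takes in more than the number of time points.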

By UniProt entry, the sequences of proteins in these tests, tags left out. Where a name states a change or a piece, a line headed by the entry shows the natural chain unless it says otherwise.
UniProt Q05397, whole entry, looked up: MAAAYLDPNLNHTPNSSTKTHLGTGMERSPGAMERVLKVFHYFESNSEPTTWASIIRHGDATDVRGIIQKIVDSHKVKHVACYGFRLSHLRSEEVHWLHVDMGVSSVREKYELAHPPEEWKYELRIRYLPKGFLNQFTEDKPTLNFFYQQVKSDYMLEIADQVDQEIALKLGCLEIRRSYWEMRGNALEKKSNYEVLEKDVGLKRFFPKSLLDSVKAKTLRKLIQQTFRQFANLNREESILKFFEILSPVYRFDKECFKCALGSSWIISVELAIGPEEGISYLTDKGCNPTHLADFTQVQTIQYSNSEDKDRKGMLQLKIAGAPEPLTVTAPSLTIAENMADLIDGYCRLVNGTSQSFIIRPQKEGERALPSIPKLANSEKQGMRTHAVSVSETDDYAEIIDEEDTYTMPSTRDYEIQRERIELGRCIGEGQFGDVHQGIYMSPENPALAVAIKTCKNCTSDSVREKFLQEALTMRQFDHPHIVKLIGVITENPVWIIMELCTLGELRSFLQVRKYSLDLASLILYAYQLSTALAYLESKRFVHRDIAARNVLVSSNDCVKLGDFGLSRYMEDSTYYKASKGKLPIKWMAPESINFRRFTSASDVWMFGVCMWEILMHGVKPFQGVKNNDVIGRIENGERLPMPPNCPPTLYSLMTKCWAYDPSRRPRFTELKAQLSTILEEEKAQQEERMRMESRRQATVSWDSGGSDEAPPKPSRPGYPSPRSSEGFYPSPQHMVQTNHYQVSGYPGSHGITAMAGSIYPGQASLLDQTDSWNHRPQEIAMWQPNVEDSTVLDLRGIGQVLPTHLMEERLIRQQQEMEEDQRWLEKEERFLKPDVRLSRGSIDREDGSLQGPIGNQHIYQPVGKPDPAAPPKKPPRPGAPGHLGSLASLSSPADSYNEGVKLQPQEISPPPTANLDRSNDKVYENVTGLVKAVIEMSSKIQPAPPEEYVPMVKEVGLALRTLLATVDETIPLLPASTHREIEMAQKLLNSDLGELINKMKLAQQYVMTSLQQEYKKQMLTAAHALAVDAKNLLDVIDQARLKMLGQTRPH
UniProt Q14289, whole entry, looked up: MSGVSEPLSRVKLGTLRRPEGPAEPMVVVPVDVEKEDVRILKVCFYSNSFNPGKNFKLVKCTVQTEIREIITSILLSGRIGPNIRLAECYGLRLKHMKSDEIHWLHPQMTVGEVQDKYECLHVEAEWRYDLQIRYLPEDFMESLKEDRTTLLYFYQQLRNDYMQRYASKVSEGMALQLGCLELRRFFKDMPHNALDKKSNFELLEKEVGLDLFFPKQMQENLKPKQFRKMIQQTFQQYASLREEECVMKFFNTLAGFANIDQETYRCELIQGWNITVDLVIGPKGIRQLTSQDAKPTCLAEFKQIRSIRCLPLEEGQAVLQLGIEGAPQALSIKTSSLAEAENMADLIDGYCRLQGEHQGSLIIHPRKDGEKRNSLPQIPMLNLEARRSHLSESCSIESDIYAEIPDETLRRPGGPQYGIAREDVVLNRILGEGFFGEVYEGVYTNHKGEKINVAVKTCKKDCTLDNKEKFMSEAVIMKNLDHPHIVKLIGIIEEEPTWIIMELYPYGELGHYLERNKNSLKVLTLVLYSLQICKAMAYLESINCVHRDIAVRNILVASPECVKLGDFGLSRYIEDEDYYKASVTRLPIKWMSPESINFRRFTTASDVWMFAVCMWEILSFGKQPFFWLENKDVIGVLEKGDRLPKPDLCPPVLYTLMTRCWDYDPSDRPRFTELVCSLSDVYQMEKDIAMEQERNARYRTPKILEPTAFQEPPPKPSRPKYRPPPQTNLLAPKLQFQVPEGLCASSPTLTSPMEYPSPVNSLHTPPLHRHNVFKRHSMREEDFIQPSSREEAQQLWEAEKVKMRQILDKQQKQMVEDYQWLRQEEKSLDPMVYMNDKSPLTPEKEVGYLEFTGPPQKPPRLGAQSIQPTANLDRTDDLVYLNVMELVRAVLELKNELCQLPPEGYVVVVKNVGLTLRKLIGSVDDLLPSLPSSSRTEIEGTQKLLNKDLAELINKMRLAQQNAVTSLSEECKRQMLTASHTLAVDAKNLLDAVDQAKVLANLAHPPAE
UniProt Q13546: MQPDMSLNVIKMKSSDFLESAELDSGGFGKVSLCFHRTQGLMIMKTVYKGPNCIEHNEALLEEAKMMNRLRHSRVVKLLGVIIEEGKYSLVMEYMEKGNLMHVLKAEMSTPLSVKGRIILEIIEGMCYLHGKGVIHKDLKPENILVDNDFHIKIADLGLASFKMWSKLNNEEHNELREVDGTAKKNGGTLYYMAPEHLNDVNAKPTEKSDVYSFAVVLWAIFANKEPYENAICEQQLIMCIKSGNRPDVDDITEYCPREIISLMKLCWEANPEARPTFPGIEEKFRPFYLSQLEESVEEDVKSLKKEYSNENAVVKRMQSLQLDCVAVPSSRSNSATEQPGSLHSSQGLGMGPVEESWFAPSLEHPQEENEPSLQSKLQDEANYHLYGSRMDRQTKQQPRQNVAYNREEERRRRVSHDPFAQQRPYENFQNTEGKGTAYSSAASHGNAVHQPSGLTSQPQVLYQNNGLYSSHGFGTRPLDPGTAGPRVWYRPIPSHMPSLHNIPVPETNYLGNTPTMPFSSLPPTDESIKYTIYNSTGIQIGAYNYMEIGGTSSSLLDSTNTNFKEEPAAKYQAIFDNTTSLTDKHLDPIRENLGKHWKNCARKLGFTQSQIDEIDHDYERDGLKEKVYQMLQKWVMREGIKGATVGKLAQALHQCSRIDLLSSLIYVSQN
UniProt Q01974, whole entry: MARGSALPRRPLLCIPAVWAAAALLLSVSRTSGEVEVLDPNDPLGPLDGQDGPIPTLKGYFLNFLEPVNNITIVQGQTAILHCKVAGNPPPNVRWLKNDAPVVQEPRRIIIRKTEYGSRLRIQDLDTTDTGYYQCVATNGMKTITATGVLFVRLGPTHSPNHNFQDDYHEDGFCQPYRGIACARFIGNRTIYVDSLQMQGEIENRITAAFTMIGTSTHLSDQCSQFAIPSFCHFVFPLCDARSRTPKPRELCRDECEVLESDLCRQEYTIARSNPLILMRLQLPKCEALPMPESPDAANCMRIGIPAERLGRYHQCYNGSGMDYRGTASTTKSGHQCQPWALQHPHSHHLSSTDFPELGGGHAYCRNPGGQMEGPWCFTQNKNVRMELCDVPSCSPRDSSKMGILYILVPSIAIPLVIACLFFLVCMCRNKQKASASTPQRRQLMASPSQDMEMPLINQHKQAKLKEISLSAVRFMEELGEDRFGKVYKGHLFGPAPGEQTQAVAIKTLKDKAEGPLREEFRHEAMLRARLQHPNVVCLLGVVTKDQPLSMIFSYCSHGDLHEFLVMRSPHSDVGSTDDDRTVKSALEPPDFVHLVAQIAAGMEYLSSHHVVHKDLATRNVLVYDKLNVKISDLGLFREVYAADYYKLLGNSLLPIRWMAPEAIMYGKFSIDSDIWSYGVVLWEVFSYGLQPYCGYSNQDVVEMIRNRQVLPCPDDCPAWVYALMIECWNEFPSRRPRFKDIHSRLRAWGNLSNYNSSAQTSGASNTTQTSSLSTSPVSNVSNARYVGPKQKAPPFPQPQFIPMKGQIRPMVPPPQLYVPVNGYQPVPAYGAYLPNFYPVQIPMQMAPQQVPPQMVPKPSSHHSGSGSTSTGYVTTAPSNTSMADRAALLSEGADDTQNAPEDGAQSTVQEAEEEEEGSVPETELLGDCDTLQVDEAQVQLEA
UniProt Q15418, whole entry: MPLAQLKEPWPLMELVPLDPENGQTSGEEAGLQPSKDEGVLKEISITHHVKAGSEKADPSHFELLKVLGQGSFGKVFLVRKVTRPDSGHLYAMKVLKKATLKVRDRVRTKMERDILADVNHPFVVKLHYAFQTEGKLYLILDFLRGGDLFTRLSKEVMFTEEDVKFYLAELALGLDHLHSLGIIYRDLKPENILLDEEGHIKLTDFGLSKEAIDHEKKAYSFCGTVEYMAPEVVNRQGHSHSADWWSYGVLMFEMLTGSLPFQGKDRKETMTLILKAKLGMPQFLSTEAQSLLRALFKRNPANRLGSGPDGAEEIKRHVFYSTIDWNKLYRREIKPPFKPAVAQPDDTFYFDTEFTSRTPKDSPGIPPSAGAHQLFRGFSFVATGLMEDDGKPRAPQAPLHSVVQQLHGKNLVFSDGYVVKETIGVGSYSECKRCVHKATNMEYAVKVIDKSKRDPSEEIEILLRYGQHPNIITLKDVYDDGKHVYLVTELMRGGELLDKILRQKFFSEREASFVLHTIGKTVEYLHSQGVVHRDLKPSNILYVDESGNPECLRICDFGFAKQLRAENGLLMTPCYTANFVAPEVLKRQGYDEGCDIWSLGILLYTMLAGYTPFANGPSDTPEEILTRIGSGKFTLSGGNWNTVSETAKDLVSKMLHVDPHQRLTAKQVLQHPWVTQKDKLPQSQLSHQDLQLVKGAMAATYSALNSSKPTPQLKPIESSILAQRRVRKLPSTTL
UniProt Q9NYA1, whole entry: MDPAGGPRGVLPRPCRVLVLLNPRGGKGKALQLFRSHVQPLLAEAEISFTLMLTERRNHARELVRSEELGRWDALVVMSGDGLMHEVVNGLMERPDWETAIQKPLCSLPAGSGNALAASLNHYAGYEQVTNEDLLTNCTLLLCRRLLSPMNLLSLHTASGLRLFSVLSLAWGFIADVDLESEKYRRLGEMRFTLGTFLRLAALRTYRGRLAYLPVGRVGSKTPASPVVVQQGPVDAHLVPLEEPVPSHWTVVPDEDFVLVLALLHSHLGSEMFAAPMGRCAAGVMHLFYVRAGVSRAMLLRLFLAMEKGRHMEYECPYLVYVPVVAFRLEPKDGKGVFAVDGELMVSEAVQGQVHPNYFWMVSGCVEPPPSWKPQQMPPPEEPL
UniProt Q9Y6E0: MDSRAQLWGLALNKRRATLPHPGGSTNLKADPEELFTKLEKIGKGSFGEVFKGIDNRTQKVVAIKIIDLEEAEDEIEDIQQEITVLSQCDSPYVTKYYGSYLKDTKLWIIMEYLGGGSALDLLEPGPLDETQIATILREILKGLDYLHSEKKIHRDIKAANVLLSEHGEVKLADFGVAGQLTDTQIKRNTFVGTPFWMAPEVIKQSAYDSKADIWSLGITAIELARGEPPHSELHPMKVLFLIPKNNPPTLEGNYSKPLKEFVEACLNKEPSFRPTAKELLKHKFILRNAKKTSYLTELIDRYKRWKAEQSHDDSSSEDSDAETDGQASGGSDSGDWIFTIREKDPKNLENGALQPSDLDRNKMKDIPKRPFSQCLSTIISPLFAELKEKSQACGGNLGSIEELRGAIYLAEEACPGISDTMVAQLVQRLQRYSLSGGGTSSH
UniProt Q6PHR2: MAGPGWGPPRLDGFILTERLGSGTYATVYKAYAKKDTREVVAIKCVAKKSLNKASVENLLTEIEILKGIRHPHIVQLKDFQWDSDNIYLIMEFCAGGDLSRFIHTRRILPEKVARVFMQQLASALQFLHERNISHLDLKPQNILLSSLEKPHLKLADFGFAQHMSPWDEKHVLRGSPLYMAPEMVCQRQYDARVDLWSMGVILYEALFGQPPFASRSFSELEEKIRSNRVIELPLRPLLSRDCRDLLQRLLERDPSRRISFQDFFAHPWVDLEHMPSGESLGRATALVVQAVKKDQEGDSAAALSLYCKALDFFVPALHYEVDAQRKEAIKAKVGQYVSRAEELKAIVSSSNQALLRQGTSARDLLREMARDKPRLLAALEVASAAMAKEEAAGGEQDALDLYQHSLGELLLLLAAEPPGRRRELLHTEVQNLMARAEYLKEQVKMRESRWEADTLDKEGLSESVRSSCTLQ

Tests used:
Experiment in all cases: number of time points (of 5) at which kinase-Nluc abundance scored as decreased, DMSO-normalised (count); higher = more persistent destabilization
Conditions in all cases: K562; 2-18 h
PRKCA = PRKCA (UniProt P17252)
PTK2 = PTK2 (UniProt Q05397)
PTK2B = PTK2B (UniProt Q14289)
RAF1 = RAF1 (UniProt P04049)
[1] = molecular target: RAF1_S257L (clone: RAF1_mut) (UniProt P04049)
RET = RET (UniProt P07949)
[2] = molecular target: RET_M918T (clone: RET_mut) (UniProt P07949)
RIOK1 = RIOK1 (UniProt Q9BRS2)
RIPK1 = RIPK1 (UniProt Q13546)
RIPK2 = RIPK2 (UniProt O43353)
ROR2 = ROR2 (UniProt Q01974)
RPS6KA1 = RPS6KA1 (UniProt Q15418)
SPHK1 = SPHK1 (UniProt Q9NYA1)
SRC = SRC (UniProt P12931)
STK24 = STK24 (UniProt Q9Y6E0)
STK38 = STK38 (UniProt Q15208)
SYK = SYK (UniProt P43405)
TEC = TEC (UniProt P42680)
TYK2 = TYK2 (UniProt P29597)
ULK3 = ULK3 (UniProt Q6PHR2)

Measured: number of time points

NC(=O)c1ccc(-c2cnn3ccc(NCc4cccnc4)nc23)cc1 (2.5 µM)
2: RIPK2
0: all other assays above

Cn1cc(-c2ccc3nnc(C(F)(F)c4ccc5ncccc5c4)n3n2)cn1 (10 µM)
0: all assays above

Nc1cc(C(F)F)c(-c2nc(N3C4CCC3COC4)nc(N3C4CCC3COC4)n2)cn1 (2.5 µM)
3: PTK2
0: all other assays above

CCCC(=O)Nc1nc2c(ncn2[C@@H]2O[C@@H]3COP(=O)(O)O[C@H]3[C@H]2OC(=O)CCC)c(=O)[nH]1 [Dibutyryl-cGMP (sodium)] (10 µM)
0: all assays above

Cn1ncc(Cl)c1-c1cc(C(=O)N[C@H](CN)Cc2ccc(F)c(F)c2)sc1Cl (10 µM)
1: RIPK2
2: RAF1 | STK38
3: PTK2 | RIPK1
4: [1]
0: all other assays above

Cc1cc2ncc(-c3ccccc3)nc2cc1C (10 µM)
0: all assays above

CC(=O)Nc1nc(C)c(-c2nc(N3CCCC(O)C3)no2)s1 (stereo not given) (10 µM)
0: all assays above

CC(=O)NCCc1c[nH]c2ccc(O)cc12 [N-Acetyl-5-hydroxytryptamine] (10 µM)
0: all assays above

Nc1ncc(-c2ccc(C(=O)N3CCNCC3)cc2)nc1-c1ccc(C(F)(F)F)cc1 (10 µM)
0: all assays above

C=C(F)C(=O)N1CCN(c2nc(OC[C@@H]3CCCN3C)nc3c2CCN(c2cccc4cccc(Cl)c24)C3)C[C@@H]1CC#N (2.5 µM)
0: all assays above

C[C@@H]1CCc2ncc(F)cc2[C@H]2CCCN2c2ccn3ncc(c3n2)C(=O)N1 [Selitrectinib] (10 µM)
0: all assays above

O=C(Nc1ccc(Cl)cc1)C1CCCN(C(=O)c2cccc(-c3ccco3)c2)C1 (stereo not given) (2.5 µM)
0: all assays above

COc1cnccc1Nc1nc(-c2nn(Cc3c(F)cc(OCCO)cc3F)c3ccccc23)ncc1OC (10 µM)
0: all assays above

O=C(O)c1ccc(N2N=C(Cc3ccccc3)C(=Cc3ccc(-c4ccccc4F)o3)C2=O)cc1 (10 µM)
0: all assays above

CCOC(=O)c1c2c3c(cccc3[nH]c1=O)C(=O)c1ccccc1-2 (10 µM)
0: all assays above

CN(C)Cc1cccc(N=C(c2ccccc2)c2c(O)[nH]c3cc(C(=O)N(C)C)ccc23)c1 (10 µM)
0: all assays above

CCOc1c([C@H](C)n2nc(C)c3c(N)ncnc32)cc(Cl)c(F)c1[C@@H]1CNC(=O)C1 [Parsaclisib (hydrochloride)] (10 µM)
0: all assays above

COc1ccc2c(c1OC)OC1c3ccc(O)cc3OCC21 (stereo not given) [Methylnissolin] (10 µM)
2: RIOK1
0: all other assays above

CN1CC[C@H](c2c(O)cc(O)c3c(=O)cc(-c4ccc(C(F)(F)F)cc4Cl)oc23)[C@H]1CO [(2S,3R)-Voruciclib (hydrochloride)] (2.5 µM)
2: [1]
0: all other assays above

O=C1NC(=O)C(=Cc2ccc3c(c2)OCO3)S1 (10 µM)
0: all assays above

Nc1n[nH]c2cc(-c3ccc(=O)n(Cc4cccc(Cl)c4)c3)ccc12 (10 µM)
0: all assays above

CCCCOc1ccc(CC/C=C2\SC(=O)N(CCN)C2=O)cc1 [K145 (hydrochloride)] (2.5 µM)
0: all assays above

COC1(C(=O)N[C@@H](C)c2ccc(-n3cc(F)cn3)nc2)CCC(c2nc(C)cc(Nc3cc(C)[nH]n3)n2)CC1 (stereo partly drawn) [trans-Pralsetinib] (2.5 µM)
0: all assays above

O=C(O)c1cc(O)c2c(c1)[C@@H]([C@H]1c3cc(C(=O)O)cc(O)c3C(=O)c3c(O[C@@H]4O[C@H](CO)[C@@H](O)[C@H](O)[C@H]4O)cccc31)c1cccc(O[C@@H]3O[C@H](CO)[C@@H](O)[C@H](O)[C@H]3O)c1C2=O [Sennoside B] (2.5 µM)
0: all assays above

CC[C@H](C)[C@H](NC(=O)[C@H](CCC(=O)O)NC(=O)[C@H](CCCN=C(N)N)NC(=O)[C@H](CCCN=C(N)N)NC(=O)[C@@H](N)CCCCN)C(=O)N[C@@H](CC(C)C)C(=O)N[C@@H](CO)C(=O)N[C@@H](CCCN=C(N)N)C(=O)N[C@@H](CCCN=C(N)N)C(=O)N1CCC[C@H]1C(=O)N[C@@H](CO)C(=O)N[C@@H](Cc1ccc(O)cc1)C(=O)N[C@@H](CCCN=C(N)N)C(=O)O [CREBtide] (10 µM)
0: all assays above

CCc1cccc(CC)c1NC(=O)c1nn(C)c2c1CCc1cnc(Nc3ccc(C(=O)NC4CCN(C)CC4)cc3OC(F)(F)F)nc1-2 (2 µM)
0: all assays above

[O-][n+]1cccc(-c2nc3c(Cl)cccc3cc2[C@@H](Nc2ncnc3cccnc23)C(F)(F)F)c1 [Seletalisib] (10 µM)
0: all assays above

O[C@H]1CC[C@H](Nc2ncc3nc(Nc4c(F)cc(F)cc4F)n([C@H]4CCOC4)c3n2)CC1 [Tanzisertib] (10 µM)
0: all assays above

C[C@@H]1COCCN1c1cc(C2([S@](C)(=N)=O)CC2)nc(-c2cc[nH]c3nccc2-3)n1 [Ceralasertib] (2.5 µM)
0: all assays above

COc1c(C)c(C(=O)c2ccc(N)c(C(=O)O)c2)n2ccccc12 (10 µM)
0: all assays above

CC(C)c1ccc(CC(=O)N2CCN(c3ccc(C#N)nn3)CC2)cc1 (10 µM)
0: all assays above

CC1=C(CC(=O)O)c2cc(F)ccc2/C1=C\c1ccc(C(C)C)cc1 (10 µM)
1: PRKCA | RPS6KA1
0: all other assays above

CCc1ccc(C(=O)COc2ccc(CC3SC(=O)NC3=O)cc2)nc1 (stereo not given) (10 µM)
0: all assays above

O=C1NC(=O)/C(=C/c2ccc(-c3ccc(F)cc3O)o2)S1 (10 µM)
0: all assays above

NCCCCCCNS(=O)(=O)c1cccc2c(Cl)cccc12 [W-7 (hydrochloride)] (10 µM)
0: all assays above

CCCNC(=O)c1cn2ncnc(Nc3cc(C(=O)NC4CC4)ccc3C)c2c1C (10 µM)
0: all assays above

N=C(N)NC(=N)NCCc1ccccc1 [Phenformin (hydrochloride)] (10 µM)
0: all assays above

Cc1cccc(-c2[nH]ncc2-c2ccc3ncccc3n2)n1 (10 µM)
1: RIPK2
0: all other assays above

C[C@@H]1C[C@H]2O[C@@]3(O[C@@H]2C(C)(C)O)[C@H](O)[C@@]2(C)[C@@H]4CC[C@H]5C(C)(C)[C@@H](O[C@@H]6OC[C@H](O)[C@H](O)[C@H]6O)CC[C@@]56C[C@@]46CC[C@]2(C)[C@@H]13 [Cimiracemoside C] (10 µM)
0: all assays above

Cc1cc(Nc2cc(CN3CCOCC3)c3nc(C)c(Cc4ccc(Cl)cc4F)n3n2)n[nH]1 [Gandotinib] (2.5 µM)
0: all assays above

N#C/C(=C\c1ccc2oc(=O)[nH]c2c1)C(=O)c1ccc(O)c(O)c1 (10 µM)
0: all assays above

NS(=O)(=O)c1ccc(N2N=C(c3ccccc3)CC2c2ccccc2)cc1 (stereo not given) (10 µM)
1: [1]
0: all other assays above

CC[C@@H](N)CNc1ccnc(-c2cc(-c3cnn(C)c3)ccc2O)n1 (2.5 µM)
3: [1]
2: RIPK1
0: all other assays above

Cc1cnc(Nc2ccc(N3CCN(C)CC3)cc2)nc1Nc1cccc(S(=O)(=O)NC(C)(C)C)c1 (2.5 µM)
0: all assays above

Cn1cc(-c2ccc(F)c(C(F)(F)F)c2)nc1C1CCN(c2ncnc3[nH]ncc23)CC1 (10 µM)
0: all assays above

CN(C)C(=O)c1ccc(S(=O)(=O)c2ccc(NC(=O)[C@@](C)(O)C(F)(F)F)c(Cl)c2)cc1 (10 µM)
1: PTK2
2: [1]
0: all other assays above

Grouped by structure, those above with a furan ring, fused or not
O=C(Nc1ccc(Cl)cc1)C1CCCN(C(=O)c2cccc(-c3ccco3)c2)C1 (stereo not given) (2.5 µM)
0: all assays above

O=C(O)c1ccc(N2N=C(Cc3ccccc3)C(=Cc3ccc(-c4ccccc4F)o3)C2=O)cc1 (10 µM)
0: all assays above

O=C1NC(=O)/C(=C/c2ccc(-c3ccc(F)cc3O)o2)S1 (10 µM)
0: all assays above

Following part:

O=c1ccoc2cc(O)ccc12 [7-Hydroxy-4H-chromen-4-one] (10 µM)
0: all assays above
